Taken from: PubChem BioAssay AID1259405 (NCATS, 2018)

Assay: 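Knock-downs that lift recombinant protein yield in hamster ovary cells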 (primary screen)
Cells: Chinese hamster CHO-K1 ovary cells with stable secreted eGFP expression
Reagent: single siRNA against mouse genes, 0.8 pmol siRNA per well (2 µl of 400 nM stock)
Duration: 3 days
Read-out: 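Percent of the per-plate non-targeting control median for intracellular GFP per well by laser scanning cytometry and for cell viability by ATP luminescence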
Scale: GFP, % of control: higher = more GFP per well, higher productivity; viability (ATP), % of control: higher = more viable cells (more ATP)
Hit rule: 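Called active when intracellular GFP, relative to negative control, is at or above 120%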
Shown is an unselected part of about 50,000 deposited reagents. About 4,000 of all reagents (8%) were called active. 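Mouse siRNA library applied to hamster cells; one well for each siRNA.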 Entries without a mark were called inactive. Reagents against one gene are numbered here.

Reep4 #1
- GFP, % of control: 106
- viability (ATP), % of control: 78.7

Reep4 #2
- GFP, % of control: 57.7
- viability (ATP), % of control: 58.6

Reep4 #3
- GFP, % of control: 101
- viability (ATP), % of control: 140

Jam2 #1
- GFP, % of control: 85
- viability (ATP), % of control: 67.5

Jam2 #2
- GFP, % of control: 133 (active)
- viability (ATP), % of control: 65.7

Jam2 #3
- GFP, % of control: 91.3
- viability (ATP), % of control: 105

Edem2 #1
- GFP, % of control: 56.5
- viability (ATP), % of control: 51

Edem2 #2
- GFP, % of control: 79.6
- viability (ATP), % of control: 99.9

Edem2 #3
- GFP, % of control: 52.8
- viability (ATP), % of control: 73.7

Scn4a #1
- GFP, % of control: 90.8
- viability (ATP), % of control: 100

Scn4a #2
- GFP, % of control: 112
- viability (ATP), % of control: 88.3

Scn4a #3
- GFP, % of control: 88.2
- viability (ATP), % of control: 69.1

Pudp #1
- GFP, % of control: 85.1
- viability (ATP), % of control: 98.6

Pudp #2
- GFP, % of control: 94.6
- viability (ATP), % of control: 79.9

Pudp #3
- GFP, % of control: 87.1
- viability (ATP), % of control: 87.4

Ift57 #1
- GFP, % of control: 98.9
- viability (ATP), % of control: 114

Ift57 #2
- GFP, % of control: 83.6
- viability (ATP), % of control: 78.1

4632404H12Rik #1
- GFP, % of control: 79.5
- viability (ATP), % of control: 82.7

4632404H12Rik #2
- GFP, % of control: 69.3
- viability (ATP), % of control: 75.4

4632404H12Rik #3
- GFP, % of control: 62.7
- viability (ATP), % of control: 106

Slc16a3 #1
- GFP, % of control: 44.9
- viability (ATP), % of control: 39.7

Slc16a3 #2
- GFP, % of control: 73.5
- viability (ATP), % of control: 55.2

Slc16a3 #3
- GFP, % of control: 54.4
- viability (ATP), % of control: 62.6

Cd200l1 #1
- GFP, % of control: 44.2
- viability (ATP), % of control: 58.2

Cd200l1 #2
- GFP, % of control: 98.7
- viability (ATP), % of control: 96

Cd200l1 #3
- GFP, % of control: 87.7
- viability (ATP), % of control: 84.6

C1ql4 #1
- GFP, % of control: 47.8
- viability (ATP), % of control: 44.7

C1ql4 #2
- GFP, % of control: 26.9
- viability (ATP), % of control: 56.8

C1ql4 #3
- GFP, % of control: 40.5
- viability (ATP), % of control: 38.5

A730085E03Rik #1
- GFP, % of control: 67.7
- viability (ATP), % of control: 49.2

A730085E03Rik #2
- GFP, % of control: 53
- viability (ATP), % of control: 58.1

A730085E03Rik #3
- GFP, % of control: 35.8
- viability (ATP), % of control: 43.4

Lhx2 #1
- GFP, % of control: 59
- viability (ATP), % of control: 44.1

Lhx2 #2
- GFP, % of control: 133 (active)
- viability (ATP), % of control: 94.9

Lhx2 #3
- GFP, % of control: 69.7
- viability (ATP), % of control: 77.7

She #1
- GFP, % of control: 48.4
- viability (ATP), % of control: 32

She #2
- GFP, % of control: 38.7
- viability (ATP), % of control: 47.5

She #3
- GFP, % of control: 77.4
- viability (ATP), % of control: 102

Rpf1 #1
- GFP, % of control: 59.5
- viability (ATP), % of control: 61.7

Rpf1 #2
- GFP, % of control: 78
- viability (ATP), % of control: 60.4

Rpf1 #3
- GFP, % of control: 151 (active)
- viability (ATP), % of control: 82.2

An excerpt of the results above:
Jam2 #3
- GFP, % of control: 91.3
- viability (ATP), % of control: 105

Edem2 #1
- GFP, % of control: 56.5
- viability (ATP), % of control: 51

Edem2 #2
- GFP, % of control: 79.6
- viability (ATP), % of control: 99.9

Edem2 #3
- GFP, % of control: 52.8
- viability (ATP), % of control: 73.7
